# Assay results as given in article PMC7826843.
# Results are given in words; binding and its absence hold for the method and conditions named. In cells and extracts the contact can be indirect. A yes stands for co-enrichment or nearness to the bait. Other partners may have been found.
# Assays:
# GFP–H2A.Z.1 (human) = GFP–H2A.Z.1 (human) (UniProt P0C0S5); test: affinity purification with mass spectrometry; SILAC-labelled HeLa Kyoto cells stably expressing GFP, GFP–H2A, –H2A.X, –H2A.Bbd or –H2A.Z.1; single-step affinity purification of soluble (chromatin-free) nuclear proteins on GFP nanotrap beads; ratio cutoff 4 and 0.25 (forward and reverse)
# GFP–H2A.X (human) = GFP–H2A.X (human) (UniProt P16104); test: as above
binding (GFP–H2A.Z.1 (human)),binding (GFP–H2A.X (human)),Binder
binds,,"Juxtaposed with Another Zinc Finger 1 (JAZF1), endogenous (protein, UniProt Q86VZ6 1-243) MTGIAAASFFSNTCRFGGCGLHFPTLADLIEHIEDNHIDTDPRVLEKQELQQPTYVALSYINRFMTDAARREQESLKKKIQPKLSLTLSSSVSRGNVSTPPRHSSGSLTPPVTPPITPSSSFRSSTPTGSEYDEEEVDYEESDSDESWTTESAISSEAILSSMCMNGGEEKPFACPVPGCKKRYKNVNGIKYHAKNGHRTQIRVRKPFKCRCGKSYKTAQGLRHHTINFHPPVSAEIIRKMQQ"
,binds,"MCM6 (protein, UniProt Q14566 1-821) MDLAAAAEPGAGSQHLEVRDEVAEKCQKLFLDFLEEFQSSDGEIKYLQLAEELIRPERNTLVVSFVDLEQFNQQLSTTIQEEFYRVYPYLCRALKTFVKDRKEIPLAKDFYVAFQDLPTRHKIRELTSSRIGLLTRISGQVVRTHPVHPELVSGTFLCLDCQTVIRDVEQQFKYTQPNICRNPVCANRRRFLLDTNKSRFVDFQKVRIQETQAELPRGSIPRSLEVILRAEAVESAQAGDKCDFTGTLIVVPDVSKLSTPGARAETNSRVSGVDGYETEGIRGLRALGVRDLSYRLVFLACCVAPTNPRFGGKELRDEEQTAESIKNQMTVKEWEKVFEMSQDKNLYHNLCTSLFPTIHGNDEVKRGVLLMLFGGVPKTTGEGTSLRGDINVCIVGDPSTAKSQFLKHVEEFSPRAVYTSGKASSAAGLTAAVVRDEESHEFVIEAGALMLADNGVCCIDEFDKMDVRDQVAIHEAMEQQTISITKAGVKATLNARTSILAAANPISGHYDRSKSLKQNINLSAPIMSRFDLFFILVDECNEVTDYAIARRIVDLHSRIEESIDRVYSLDDIRRYLLFARQFKPKISKESEDFIVEQYKHLRQRDGSGVTKSSWRITVRQLESMIRLSEAMARMHCCDEVQPKHVKEAFRLLNKSIIRVETPDVNLDQEEEIQMEVDEGAGGINGHADSPAPVNGINGYNEDINQESAPKASLRLGFSEYCRISNLIVLHLRKVEEEEDESALKRSELVNWYLKEIESEIDSEEELINKKRIIEKVIHRLTHYDHVLIELTQAGLKGSTEGSESYEEDPYLVVNPNYLLED"
binds,binds,"AT-rich interaction domain 5B (ARID5B) (protein, UniProt Q14865 1-1188) MEPNSLQWVGSPCGLHGPYIFYKAFQFHLEGKPRILSLGDFFFVRCTPKDPICIAELQLLWEERTSRQLLSSSKLYFLPEDTPQGRNSDHGEDEVIAVSEKVIVKLEDLVKWVHSDFSKWRCGFHAGPVKTEALGRNGQKEALLKYRQSTLNSGLNFKDVLKEKADLGEDEEETNVIVLSYPQYCRYRSMLKRIQDKPSSILTDQFALALGGIAVVSRNPQILYCRDTFDHPTLIENESICDEFAPNLKGRPRKKKPCPQRRDSFSGVKDSNNNSDGKAVAKVKCEARSALTKPKNNHNCKKVSNEEKPKVAIGEECRADEQAFLVALYKYMKERKTPIERIPYLGFKQINLWTMFQAAQKLGGYETITARRQWKHIYDELGGNPGSTSAATCTRRHYERLILPYERFIKGEEDKPLPPIKPRKQENSSQENENKTKVSGTKRIKHEIPKSKKEKENAPKPQDAAEVSSEQEKEQETLISQKSIPEPLPAADMKKKIEGYQEFSAKPLASRVDPEKDNETDQGSNSEKVAEEAGEKGPTPPLPSAPLAPEKDSALVPGASKQPLTSPSALVDSKQESKLCCFTESPESEPQEASFPSFPTTQPPLANQNETEDDKLPAMADYIANCTVKVDQLGSDDIHNALKQTPKVLVVQSFDMFKDKDLTGPMNENHGLNYTPLLYSRGNPGIMSPLAKKKLLSQVSGASLSSSYPYGSPPPLISKKKLIARDDLCSSLSQTHHGQSTDHMAVSRPSVIQHVQSFRSKPSEERKTINDIFKHEKLSRSDPHRCSFSKHHLNPLADSYVLKQEIQEGKDKLLEKRALPHSHMPSFLADFYSSPHLHSLYRHTEHHLHNEQTSKYPSRDMYRESENSSFPSHRHQEKLHVNYLTSLHLQDKKSAAAEAPTDDQPTDLSLPKNPHKPTGKVLGLAHSTTGPQESKGISQFQVLGSQSRDCHPKACRVSPMTMSGPKKYPESLSRSGKPHHVRLENFRKMEGMVHPILHRKMSPQNIGAARPIKRSLEDLDLVIAGKKARAVSPLDPSKEVSGKEKASEQESEGSKAAHGGHSGGGSEGHKLPLSSPIFPGLYSGSLCNSGLNSRLPAGYSHSLQYLKNQTVLSPLMQPLAFHSLVMQRGIFTSPTNSQQLYRHLAAATPVGSSYGDLLHNSIYPLAAINPQAAFPSSQLSSVHPSTKL"
